From patent US20230220000 (published 2023)

What was measured:
[1] = general procedure: Fmoc solid-phase peptide synthesis; Fmoc Sieber resin; PyBOP/collidine or PyBOP/DIEA (side chain); DEPT/DIEA (N-terminal His); DIC/ethy; details: whole synthesis, zwitterionic form; sodium salt
[2] = general procedure: Fmoc solid-phase peptide synthesis; Fmoc amide resin; Sieber resin (0.6 mmol/g); PyBOP/collidine or PyBOP/DIEA (side chain); DEPT/DIEA (N-terminal His); DIC/ethy; details: sodium salt
[3] = whole synthesis, UPLC, scale of the general procedure 28 g Sieber resin, 1.4 kg Sieber resin, zwitterionic form
[4] = whole synthesis, scale of the general procedure 28 g Sieber resin, 1.4 kg Sieber resin, zwitterionic form

| Substance | crude mass [1] | crude HPLC purity [2, 3] | crude yield [2, 4] | crude mass ([2]; whole synthesis, zwitterionic form) | final purity (method not given) ([2]; purification step, HPLC area percent, UPLC, zwitterionic form, run 1) | step yield ([2]; purification step, zwitterionic form, run 1) | step yield ([2]; purification step, zwitterionic form, run 2) | final HPLC purity ([2]; whole synthesis, HPLC area percent, UPLC, scale of the general procedure 28 g Sieber resin, 1.4 kg Sieber resin) | crude HPLC purity ([2]; whole synthesis, HPLC area percent, UPLC, scale of the general procedure 28 g Sieber resin, 1.4 kg Sieber resin, zwitterionic form) | crude yield ([2]; whole synthesis, contained yield based on Sieber resin, scale of the general procedure 28 g Sieber resin, 1.4 kg Sieber resin, zwitterionic form) | isolated yield ([2]; whole synthesis, overall process yield from Sieber resin, scale of the general procedure 28 g Sieber resin, 1.4 kg Sieber resin) | difficulty met [2, 4] | isolated mass ([2]; whole synthesis) |
| --- | --- | --- | --- | --- | --- | --- | --- | --- | --- | --- | --- | --- | --- |
| Boc-His(Dnp)-Aib-Gln(Trt)-Gly-OH | 1.89 g | 97.66% UPLC purity | 87.8% |  |  |  |  |  |  |  |  |  |  |
| Boc-His(Dnp)-Aib-Gln(Trt)-Gly-Thr(^tBu)-OH |  | 88.1% | 91.4% | 2.255 g |  |  |  |  |  |  |  |  |  |
| H2N-H-Aib-QGTFTSDYSKYLDEKKAKEFVEWLLEGGPSSG-NH2 |  |  |  |  | 93% purity and 98% purity | 83% yield and 93.6% yield | 95% yield | greater than 95.0% HPLC purity | 65% HPLC area percent purity | 47% | 25% | In contrast, coupling individual Fmoc-L-Gly and Fmoc-L-Thr amino acids result in high levels of peptide impurities having a Thr5 deletion. | 10 g |

Several values for one entry are separate records, joined by “and”; a condition that tells them apart may be missing. Equal values may be shown once.
